# Test results taken from PubChem BioAssay (EPA / NIEHS).
# Values joined by “and” are separate entries in the source; they are usually repeats but may differ in a detail not shown here. Identical values can stand only once. The inconclusive results got no clear call from the source; some entries with a clear call stand among them for comparison. Potencies of inconclusive entries are doubtful fits and often do not repeat. The source holds several records for some structures; these can differ, active in one and inactive in another. Active and inactive are the calls of the source. Rule for the calls: active = hit-call score of the fitted dose curve at least 0.9, where 1 is the maximum; inconclusive = response in the unintended direction; inactive = score below 0.9.
# Test: TOX21_p53_BLA_p4_viability: Viability Assessment in the Tox21 HCT-116 p53 Agonism Beta-lactamase Assay, Phase 4 (AID 2283597);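 note: hits lower the luminescence signal meaning cytotoxicity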
# Source text: TOX21_p53_BLA_p4 is a cell-based, single-readout assay that uses HCT116, a human intestinal cell line, […] in a 1536-well plate.TOX21_p53_BLA_p4_viability is an assay readout measuring cellular ATP content and detected with CellTiter-Glo Luciferase-coupled ATP quantitation.TOX21_p53_BLA_p4_viability used a type of viability reporter where loss-of-signal activity can be used to understand changes in the cell viability. Furthermore, this assay endpoint can be referred to as a secondary readout, because this assay has produced multiple assay endpoints where this one serves a viability function. To generalize the intended target to other relatable targets, this assay endpoint is annotated to the cell cycle intended target family, where the subfamily is cytotoxicity.
# Thawing Method: Place 14 mL of pre-warmed thaw medium into a 15 mL of conical tub. Remove the vial of cells to be thawed from liquid nitrogen and thaw rapidly by placing at 37C in a water bath with gentle agitation for 1-2 minutes. Decontaminate the vial by wiping with 70% ethanol before opening in a biological safety cabinet. Transfer the vial contents drop-wise into 14 mL of thaw medium in a sterile 15-mL conical tub. Centrifuge cells at 900 rpm for 4 minutes and resuspend in thaw medium. Transfer contents to the T75 tissue culture flask containing Thaw Medium and place flask in a humidified 37C/5% CO2 incubator. Switch to growth medium at first passage.Propagation Method: Aspirate medium, rinse once in DPBS, add 0.25% Trypsin/EDTA and swirl to coat the cell evenly. Add an equal volume of Growth Medium to inactivate Trypsin after 2-3 minutes incubation at 37C. Centrifuge cells at 900 rpm for 4 minutes and resuspend in growth medium. Cell should be passage or fed at least twice a week.Assay Protocol: Harvest cells from culture in growth medium and resuspend in assay medium. 2.2 Dispense 4000 cells/5 uL/well into 1536-well black/clear bottom plates using a Multidrop dispenser. After the cells were incubated at 37C for 5 hours, 23 nL of compounds dissolved in DMSO were transferred to the assay plate by a PinTool resulting in a 217-fold dilution. Incubate the plates for 16 hours at 37C, 5% CO2. Add 1 uL of 6X LiveBLAzer FRET B/G (CCF4-AM) Substrate Mixture to each well using a BioRAPTR dispenser and incubate the plates at room temperature for 2 hours. Measure fluorescence intensity at 460 and 530 nm emission and 405 nm excitation by an Envision detector. Data is expressed as the ratio of 460nm/530nm emissions. Add 4 uL of Cell-titer Glo to each well using BioRAPTR and incubate the plates at room temperature for […]. For cell viability readout that measures cytotoxicity, 4 ul/well of CellTiter-Glo reagent was added into the assay plates using a Flying Reagent Dispenser. After 30 min incubation at room temperature, the luminescence intensity in the plates was measured using a ViewLux plate reader.
SMILES,AC50,outcome
Cc1c2ccccc2c(C)c2c1ccc1ccccc12,active: 56.3 µM,inactive
NC(=Nc1ccccc1)Nc1ccccc1,inconclusive: 23 µM,inactive
NC(=O)c1nc(-c2cccc(-c3cc(F)ccc3OCC(F)(F)C(F)(F)F)c2)n[nH]1,active: 70.5 µM,
CCO[Si](C)(OCC)OCC,inconclusive: 46.1 µM,
O=S(=O)(O)c1ccccc1C=Cc1ccc(-c2ccc(C=Cc3ccccc3S(=O)(=O)O)cc2)cc1,inconclusive: 38.5 µM,
CCCCCCOCCO,inconclusive: 9.14 µM and inconclusive: 46.5 µM,
O=S(=O)(O)c1ccc2cc(O)c(S(=O)(=O)O)cc2c1,,inactive
CC(C)c1cc(C(C)C)cc(C(C)C)c1,,inactive
CCC(C)(C)C1CCC(O)CC1 (stereo not given),inconclusive: 4.73 µM,
Nc1ncn([C@@H]2O[C@H](CO)[C@@H](O)[C@H]2O)c(=O)n1,active: 1.15 µM and active: 514 nM,
C#C[C@]1(O)CC[C@H]2[C@@H]3CCC4=CC(=O)CC[C@@H]4[C@H]3CC[C@@]21CC,inconclusive: 0.543 µM,
CCCC(=O)OCCC(C)C,,inactive
CCC(Cc1c(I)cc(I)c(N)c1I)C(=O)O (stereo not given),active: 69.9 µM,inactive
CC1=NN(c2ccccc2)C(=O)C1,inconclusive: 46.1 µM and inconclusive: 23 µM,
O=C(OCC1CCC2OC2C1)C1CCC2OC2C1 (stereo not given),inconclusive: 46.1 µM,
COCCCN,inconclusive: 45.6 µM,
CCCCCCCC(=O)OC,,inactive

SMILES,AC50,outcome
CC(C)(c1ccc(O)cc1)c1ccc(O)cc1,active: 85.1 µM,
CCCCCCCCCCCCCCOS(=O)(=O)O,active: 73.1 µM,
c1ccc2ccccc2c1,inconclusive: 46.1 µM and inconclusive: 83.3 µM and inconclusive: 23 µM,
COC(=O)c1c(Cl)c(Cl)c(C(=O)OC)c(Cl)c1Cl,inconclusive: 46.1 µM,inactive
CCC(C)C(=O)OCCc1ccccc1 (stereo not given),inconclusive: 46.1 µM,
O=C(O)c1cc(C(=O)O)c(C(=O)O)cc1C(=O)O,inconclusive: 46.1 µM,
CCCc1cc(=O)[nH]c(=S)[nH]1,inconclusive: 69.3 µM,
CCNc1cccc(C)c1,inconclusive: 44.6 µM,inactive
CC(=O)Oc1ccc(C)cc1,inconclusive: 78.6 µM and inconclusive: 23 µM,
Cc1cc(C)c(C)c(O)c1,,inactive
C=C(C)C1CC=C(C)CC1 (stereo not given),inconclusive: 23 µM,
O=C(c1ccc(OCCN2CCCCC2)cc1)c1c(-c2ccc(O)cc2)sc2cc(O)ccc12,active: 68.2 µM and active: 68.5 µM and active: 25.1 µM,
CCCCCCCCCCCCCC(=O)O,inconclusive: 46.1 µM,inactive
Cc1ccccc1Cl,inconclusive: 46.1 µM and inconclusive: 46.3 µM,
CCc1nc(N)nc(N)c1-c1ccc(Cl)cc1,active: 18.3 µM and active: 15.9 µM and active: 10.4 µM,
O=C1C=CC(=O)N1c1ccccc1,active: 84.5 µM,
O=C1C(N(CO)C(=O)NCO)N(CO)C(=O)N1CO (stereo not given),inconclusive: 34.3 µM and inconclusive: 46.1 µM,
